These results are taken from article PMC9440223.

These are yes or no findings as the source states them, for the method shown. In cells and extracts the contact can be indirect. Binding can be weak; no strength is given. Tags and fused reporters may be left off the sequences shown.

Experiment [1] has as its target T1, Flag-tagged KCTD9 FL (human) (UniProt Q7L273).
T1 sequence: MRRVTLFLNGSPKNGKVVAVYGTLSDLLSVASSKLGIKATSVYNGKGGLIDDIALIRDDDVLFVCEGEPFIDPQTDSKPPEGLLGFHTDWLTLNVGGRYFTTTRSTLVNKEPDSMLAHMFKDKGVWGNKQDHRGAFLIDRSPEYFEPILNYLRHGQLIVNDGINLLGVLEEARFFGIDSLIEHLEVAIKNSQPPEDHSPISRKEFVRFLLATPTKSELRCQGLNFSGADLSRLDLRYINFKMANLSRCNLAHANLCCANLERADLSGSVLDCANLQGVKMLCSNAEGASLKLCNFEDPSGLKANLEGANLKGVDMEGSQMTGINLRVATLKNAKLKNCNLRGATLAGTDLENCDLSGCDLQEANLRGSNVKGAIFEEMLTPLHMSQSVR
The experiment can be described thus: co-IP; SW620 cells co-transfected with Flag-tagged KCTD9 and HA-tagged ZNT9 constructs (full length and fragments), immunoprecipitation and Western blot. (In general: Immunoblotting shows a protein as a band on a membrane.)

Experiment [2] deals with Flag-tagged KCTD9 C-terminal region (human). The description is as above.

Turning to “HA-tagged ZNT9 N-terminal region (amino acids 1-200) (from UniProt Q6PML9) (domain or fragment)”, in experiment [1], the binding result was “binds”.

B1: HA-tagged ZNT9 FL (protein, UniProt Q6PML9 68-568)
chain: STNVQKEGQGSQTLRVEKVPSFETAEGIGTELKAPLKQEPLQVRVKAVLKKREYGSKYTQNNFITGVRAINEFCLKSSDLEQLRKIRRRSPHEDTESFTVYLRSDVEAKSLEVWGSPEALAREKKLRKEAEIEYRERLFRNQKILREYRDFLGNTKPRSRTASVFFKGPGKVVMVAICINGLNCFFKFLAWIYTGSASMFSEAIHSLSDTCNQGLLALGISKSVQTPDPSHPYGFSNMRYISSLISGVGIFMMGAGLSWYHGVMGLLHPQPIESLLWAYCILAGSLVSEGATLLVAVNELRRNARAKGMSFYKYVMESRDPSTNVILLEDTAAVLGVIIAATCMGLTSITGNPLYDSLGSLGVGTLLGMVSAFLIYTNTEALLGRSIQPEQVQRLTELLENDPSVRAIHDVKATDLGLGKVRFKAEVDFDGRVVTRSYLEKQDFDQMLQEIQEVKTPEELETFMLKHGENIIDTLGAEVDRLEKELKKRNPEVRHVDLEIL
Turning to B1, the binding result in experiment [2] is “binds”.
